This is one part of the list.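 Rule for the calls: active = mitochondrial OCR inhibition above 30% at 1 uM; inactive = 30% or less.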 Single values are uncertain, as repeats are few or missing.
Test system: Toxoplasma gondii RH tachyzoites
Experiment: inhibition of mitochondrial O2 consumption rate (% inhibition (relative to pre-injection OCR and atovaquone/antimycin A control)); higher = stronger ETC inhibition
Conditions: 1 µM; injection port (sequential injection order): A

| Structure (SMILES) | inhibition of mitochondrial O2 consumption rate |
| --- | --- |
| O=C(NCCc1ccccc1)c1cc(-c2cccnc2)cnc1NCC1CC1 | inactive: 3.41 |
| O=C(c1ccc(NCCO)cc1)C1C[C@H]1c1ccc(Cl)cc1 (some centres not stated) | inactive: -9.36 |
| Cc1nnc(NCc2cccc(Cl)c2)c2ccccc12 | inactive: -7.2 |
| O=C(c1ccco1)N(CCCn1ccnc1)c1nc2c(Cl)cccc2s1 | inactive: 2.01 |
| NS(=O)(=O)c1cncc(-c2ccc3nccc(-c4cn[nH]c4)c3n2)c1 | inactive: -3.04 |
| Cc1nc(-c2ccccn2)nc(N2CCC(Cc3ccccc3)C2)c1Cl (configuration not stated) | inactive: -11.3 |
| O=C(Nc1nnc(-c2ccc(Cl)s2)o1)c1ccc(Cl)s1 | inactive: -19.9 |
| CCCNC(=O)N1CCC2(CC1)CC(=O)c1cc(C)ccc1O2 | inactive: -7.02 |
| COc1ccc(-c2cc(NC(=O)c3ccc(F)cc3Cl)ccc2OC)cc1 | inactive: -2.56 |
| N=C(N)c1ccc(-c2cc(-c3ccccc3)on2)cc1 | inactive: -5.08 |
| CCCn1nnc(NC(=O)COc2ccc(C3CCCCC3)cc2)n1 | inactive: -0.344 |
| O=C(Nc1cccnc1)c1c(O)c2cccc3c2n(c1=O)CC3 | inactive: 2.83 |
| N#Cc1ccc(-c2ccc(OCC(N)=O)cc2)cc1 | inactive: -0.199 |
| CCc1c(C)nc(-n2nc(C)cc2NC(=O)c2ccccc2SC)[nH]c1=O | inactive: 0.642 |
| O=C(NC1CCN(c2ccnc3ccccc23)C1)c1cccc(C(F)(F)F)c1 (configuration not stated) | inactive: 1.61 |
| CC(C)(C)CN1C(=O)C(c2ccccc2)(c2ccccc2)N=C1N | inactive: -7.98 |
| O=C(Nc1ccc(N2CCNCC2)nc1)c1oc(-c2ccccc2)nc1C(F)(F)F | inactive: -10.5 |

Individual results from above.
inhibition of mitochondrial O2 consumption rate, O=C(NCCc1ccccc1)c1cc(-c2cccnc2)cnc1NCC1CC1 reads inactive: 3.41
inhibition of mitochondrial O2 consumption rate, O=C(Nc1nnc(-c2ccc(Cl)s2)o1)c1ccc(Cl)s1 reads inactive: -19.9

Same assay, conditions: 1 µM; injection port (sequential injection order): B

| Structure (SMILES) | inhibition of mitochondrial O2 consumption rate |
| --- | --- |
| CNc1nnc(Sc2cnn(-c3ccccc3)c(=O)c2Cl)s1 | inactive: 5.62 |
| CC(C)C(C(=O)Nc1ccc(S(=O)(=O)N(C)C)cc1)c1ccc(Cl)cc1 (configuration not stated) | inactive: -9.09 |
| C[C@]1(O)C[C@@H](c2nc(-c3ccc4ccc(-c5ccccc5)nc4c3)c3c(N)nccn32)C1 | inactive: -0.673 |
| Oc1c(I)cc(I)c2cccnc12 | inactive: -7.3 |
| c1ccc2c(c1)CN(CC1CC1)CC1(CCN(Cc3c[nH]c4cnccc34)CC1)O2 | inactive: 0.14 |
| COc1ccc(C2(C(=O)Nc3ccc(Br)cc3)CCCC2)cc1 | inactive: -10.7 |
| CNC(=O)c1nn(C)c2c1C(C)(C)Cc1cnc(Nc3ccc(N4CCN(C)CC4)cc3)nc1-2 | inactive: -0.547 |
| CCN(CC)CCCCCCNc1cc(OC)cc2c(C)ccnc12 | inactive: 1.93 |
| COCC(C)NC(=O)CSc1ncnc2sc(-c3ccccc3)cc12 (configuration not stated) | inactive: -2.1 |
| Cc1cc(C(=O)Nc2cnn(Cc3ccc(Cl)cc3Cl)c2)no1 | inactive: -3.74 |

Reference: the supplement of paper PMC10403144
